Data as given in article PMC8716364, “A Redox-Sensitive Cysteine Is Required for PIN1At Function” (Frontiers in Plant Science, 2021).
These are yes or no findings as the source states them, for the method shown. Where a sequence is shown, tags or fusion partners need not be part of it.

Biological target: Arabidopsis PIN1At, untagged recombinant protein (Arabidopsis thaliana) (UniProt Q9SL42)
Test: condition: only reduced, without H2O2 (76 μM protein); SEC-MALS; 76 μM (300 μg) reduced PIN1At, no H2O2, 30 mM Tris-HCl pH 8.0, 200 mM NaCl, Superdex200 10/300; both purified

B1: Arabidopsis PIN1At, untagged recombinant protein (enzyme, Arabidopsis thaliana, UniProt Q9SL42 2-119, looked up)
chain: ASRDQVKASHILIKHQGSRRKASWKDPEGKIILTTTREAAVEQLKSIREDIVSGKANFEEVATRVSDCSSAKRGGDLGSFGRGQMQKPFEEATYALKVGDISDIVDTDSGVHIIKRTA
notes: Single cysteine, Cys69; the printed masses (12.3 kDa, 12,882.7 Da; theoretical 13,014.7 Da) fit the untagged protein; also called PAR1; PIN1At/PAR1; source: E. coli BL21 (DE3) with pSBET, pET12a, purified (ammonium sulfate, ACA44 gel filtration, DEAE-Sephacel)
- binding: no binding
